PubChem BioAssay AID504774, Drosophila RNAi Screening Center – 2011
In all, the deposit lists about 23,000 reagents; this is a random part of those with a known target gene and a result. 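Values are quantile-normalised luminescence on an arbitrary scale; higher means more cells surviving MMS.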 Reagents against one gene are numbered here. A plus sign joins genes that one reagent is predicted to hit. Further read-outs or replicates are left out here.

- Test: 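Fly genes whose loss alters survival after alkylation damage to DNA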 (primary screen)
- Cell system: Drosophila Kc167 cells
- Reagent: long dsRNA against Drosophila genes, about 0.25 µg dsRNA per well
- Time to read-out: about 6 days: 3 days knock-down, then 3 days with or without MMS
- Treatment: methyl methanesulphonate 0.004% (w/v) for 3 days after knock-down
- Detection: 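Viability in wells given MMS, read as ATP luminescence, normalised by quantiles plate by plate and averaged across replicates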
- Reading the numbers: mean viability with MMS: higher = more surviving cells after MMS

mean viability with MMS, by gene and reagent
TotZ (Turandot Z): #1 3.49e6
CG4707: #1 3.52e6
Dfd (Deformed): #1 3.71e6
CG14070: #1 3.64e6
CG1077: #1 3.63e6
Cdk5 (Cyclin-dependent kinase 5): #1 3.63e6
CG7149: #1 3.54e6
CG42254 (retired record): #1 3.45e6
Dlish (Dachs ligand with SH3s): #1 3.58e6
Rhp (Rhophilin): #1 3.56e6
CG3348: #1 3.49e6
Smg6: #1 3.38e6
EbpII (Ejaculatory bulb protein II): #1 3.65e6; #2 3.56e6
Spn88Eb (Serpin 88Eb): #1 3.42e6
CG13137: #1 3.57e6
CG13359: #1 3.77e6

Laid out differently: entries from further up
gene | dsRNA no. | mean viability with MMS
CG1077 | 1 | 3.63e6
Cdk5 (Cyclin-dependent kinase 5) | 1 | 3.63e6

Continued.
mean viability with MMS, by gene and reagent
CG4404: #1 3.32e6
CG6937: #1 3.45e6
MagR (Magnetic receptor): #1 3.42e6
CG3987: #1 3.49e6
CG11398: #1 3.50e6
CSN6 (COP9 signalosome subunit 6): #1 3.36e6
mei-41 (meiotic 41): #1 3.39e6
CG12723: #1 3.64e6
ash1 (absent, small, or homeotic discs 1): #1 3.51e6
corto: #1 3.35e6; #2 3.54e6; #3 3.65e6
Inx6 (Innexin 6): #1 3.44e6
CG8128: #1 3.46e6
rswl (roswell): #1 3.50e6
CG13694: #1 3.50e6
CG17145: #1 3.39e6
ato (atonal): #1 3.34e6
CG11041: #1 3.67e6
His2B:CG33894 + His2B:CG33872 + His2B:CG33902 + 20 more: #1 3.15e6
CG4935: #1 3.62e6
Neurochondrin: #1 3.60e6
apolpp (apolipophorin): #1 3.59e6
Fer1 (48 related 1): #1 3.59e6; #2 3.64e6
Rok (Rho kinase): #1 3.72e6; #2 3.12e6
BHD (Birt-Hogg-Dube): #1 3.66e6; #2 3.55e6
